Marks after values point to notes of the source that are not given here.
B1: papain: cysteine protease Car p 1 from the plant Carica papaya, purified, Sigma; chosen as negative control (protein, UniProt P00784 134-345, looked up)
Papain: IPEYVDWRQKGAVTPVKNQGSCGSCWAFSAVVTIEGIIKIRTGNLNEYSEQELLDCDRRSYGCNGGYPWSALQLVAQYGIHYRNTYPYEGVQRYCRSREKGPYAAKTDGVRQVQPYNEGALLYSIANQPVSVVLEAAGKDFQLYRGGIFVGPCGNKVDHAVAAVGYGPNYILIKNSWGTGWGENGYIRIKRGTGNSYGVCGLYTSSFYPVKN
B2: Der p 1: major house dust mite allergen, family C1 cysteine protease, purified from D. pteronyssinus extract (protein, UniProt P08176 99-320, looked up)
Peptidase 1: TNACSINGNAPAEIDLRQMRTVTPIRMQGGCGSCWAFSGVAATESAYLAYRNQSLDLAEQELVDCASQHGCHGDTIPRGIEYIQHNGVVQESYYRYVAREQSCRRPNAQRFGISNYCQIYPPNVNKIREALAQTHSAIAVIIGIKDLDAFRHYDGRTIIQRDNGYQPNYHAVNIVGYSNAQGVDYWIVRNSWDTNWGDNGYGYFAANIDLMMIEEYPYVVIL

Tests used:
[1] = Adsorption of papain to aluminium hydroxide: protein concentration by A280; type: physicochemical
Source text: (§1) The aromatic amino acids tryptophan, tyrosine and phenylalanine absorb ultraviolet light. However only tryptophan and tyrosine absorb at 280 nm and tryptophan absorbs 5 times more light than tyrosine. This is due to the […] transition in the indole ring of tryptophan where phenylalanine and tyrosine contains a phenyl group. The absorbance of a protein is linearly correlated with the amount of tryptophan and tyrosine in the protein, the length of the light path and the concentration of protein. This relationship is named Lambert-Beer's law and is given by: A=ε·l·c where A is the absorbance, ε is the molar absorption coefficient for the protein (determined by the amount of tryptophan and tyrosine in the protein) l is the length of the light path and c is the protein concentration. Thus from an absorbance measurement the concentration of protein can be estimated if the molar absorptivity coefficient is known. • Apparatuses • Lambda 800 UV/VIS Spectrometer, PerkinElmer™ • 100-QS, quartz cuvette, path length 1 cm, Hellma® • Materials and Reagents • 50 mM Bis-Tris pH 6.5, Sigma • 50 mM Tris pH 7.0, Sigma • 50 mM phosphate buffer pH 7.0, Merck • 2% Helmanex solution, Hellma Experimental Procedure
The spectrophotometer was turned on 30 min prior to use for a warm up period. […] After cleaning the cuvette 20 μL of sample was transferred to the cuvette and the absorbance was measured. […]

[2] = Adsorption of Der p 1 to aluminium hydroxide: protein concentration by A280; type: physicochemical
Source text: as §1
The spectrophotometer was turned on 30 min prior to use for a warm up period. The wavelength of the spectrophotometer was set to 280 nm and the instrument was zeroed to a blank sample containing the matrix of the true sample. The quartz cuvette was washed first with a 2% Helmanex solution and then 4 times with MQ water and afterwards dried with high pressure air. […] After cleaning the cuvette 20 μL of sample was transferred to the cuvette and the absorbance was measured.
After adsorption 500 μL was taken out for further analysis and the rest of the mixture was centrifuged for 10 min at 4000 rpm. […] Con1 was analyzed in the beginning of the experiment and Con2 was analyzed at the end of the 2 hours experiment.
The absorbance measurements were converted to protein concentration by the Lambert-Beer's law using a molar absorption coefficient for Der p 1 of […] as shown in table 8a. […]

Molecule	Protein concentration (determined by A280) ([1]; Adsorbed (mix 2), determined indirectly, difference between Con and Sup1) [ng/mL]	Protein concentration (determined by A280) ([1]; Control: papain in the absence of aluminium hydroxide) [ng/mL]	Protein concentration (determined by A280) ([2]; Adsorbed (mix 2), determined indirectly, difference between Con1 and Sup)	Protein concentration (determined by A280) ([2]; Control: Der p 1 in the absence of aluminium hydroxide)	Protein concentration (determined by A280) ([2]; Eluted: Der p 1 eluted from aluminium hydroxide with phosphate buffer)
B1	3.0	70.8	–	–	–
B2	–	–	7.1*	10.4	4.0
